Data reported in the supplement of paper PMC10849652.
The list shows a part of the results.

The chains behind the UniProt entries cited, without tags or fusion partners. Where a name states a change or a piece, a line headed by the entry shows the natural chain unless it says otherwise.
UniProt O75251, whole entry, looked up: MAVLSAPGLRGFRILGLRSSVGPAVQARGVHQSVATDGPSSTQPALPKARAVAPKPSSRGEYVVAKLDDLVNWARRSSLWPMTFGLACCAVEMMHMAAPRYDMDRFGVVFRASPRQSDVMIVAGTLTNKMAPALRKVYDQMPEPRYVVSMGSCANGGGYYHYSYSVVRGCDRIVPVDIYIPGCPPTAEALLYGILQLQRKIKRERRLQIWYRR
UniProt O43920, whole entry, looked up: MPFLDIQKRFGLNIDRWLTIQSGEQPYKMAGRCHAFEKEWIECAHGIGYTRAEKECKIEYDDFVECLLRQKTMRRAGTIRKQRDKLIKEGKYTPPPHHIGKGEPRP
UniProt Q92692, whole entry, looked up: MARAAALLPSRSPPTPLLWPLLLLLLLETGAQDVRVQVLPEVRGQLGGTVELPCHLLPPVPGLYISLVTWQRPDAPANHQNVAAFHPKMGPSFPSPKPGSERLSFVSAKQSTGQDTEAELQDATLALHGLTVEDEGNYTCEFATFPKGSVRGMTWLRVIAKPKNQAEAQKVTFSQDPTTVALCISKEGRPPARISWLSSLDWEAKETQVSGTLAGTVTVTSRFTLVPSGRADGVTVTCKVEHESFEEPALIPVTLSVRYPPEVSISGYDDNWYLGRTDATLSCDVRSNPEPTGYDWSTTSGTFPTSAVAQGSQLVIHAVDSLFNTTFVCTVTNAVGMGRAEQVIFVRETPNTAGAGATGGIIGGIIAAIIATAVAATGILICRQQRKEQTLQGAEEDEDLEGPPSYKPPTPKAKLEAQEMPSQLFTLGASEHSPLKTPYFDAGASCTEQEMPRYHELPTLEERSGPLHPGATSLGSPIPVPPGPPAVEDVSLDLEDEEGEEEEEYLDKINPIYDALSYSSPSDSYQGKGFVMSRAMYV
UniProt Q9BPW8: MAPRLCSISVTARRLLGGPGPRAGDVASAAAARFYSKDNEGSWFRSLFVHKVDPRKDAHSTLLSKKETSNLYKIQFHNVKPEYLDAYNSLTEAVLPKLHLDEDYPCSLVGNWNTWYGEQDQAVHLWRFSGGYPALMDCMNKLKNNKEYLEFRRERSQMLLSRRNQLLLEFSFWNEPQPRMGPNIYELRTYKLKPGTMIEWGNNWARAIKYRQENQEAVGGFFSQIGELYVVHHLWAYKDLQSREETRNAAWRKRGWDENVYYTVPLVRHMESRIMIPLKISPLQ
UniProt Q9Y375: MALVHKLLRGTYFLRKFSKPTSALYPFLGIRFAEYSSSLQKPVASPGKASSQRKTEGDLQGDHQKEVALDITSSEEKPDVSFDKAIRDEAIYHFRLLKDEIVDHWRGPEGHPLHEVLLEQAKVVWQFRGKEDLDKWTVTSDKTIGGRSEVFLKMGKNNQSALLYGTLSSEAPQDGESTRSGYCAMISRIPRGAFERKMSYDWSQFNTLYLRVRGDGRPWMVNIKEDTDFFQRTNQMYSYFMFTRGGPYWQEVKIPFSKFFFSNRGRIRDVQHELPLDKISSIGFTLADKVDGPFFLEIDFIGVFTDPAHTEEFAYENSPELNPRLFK
UniProt Q92859: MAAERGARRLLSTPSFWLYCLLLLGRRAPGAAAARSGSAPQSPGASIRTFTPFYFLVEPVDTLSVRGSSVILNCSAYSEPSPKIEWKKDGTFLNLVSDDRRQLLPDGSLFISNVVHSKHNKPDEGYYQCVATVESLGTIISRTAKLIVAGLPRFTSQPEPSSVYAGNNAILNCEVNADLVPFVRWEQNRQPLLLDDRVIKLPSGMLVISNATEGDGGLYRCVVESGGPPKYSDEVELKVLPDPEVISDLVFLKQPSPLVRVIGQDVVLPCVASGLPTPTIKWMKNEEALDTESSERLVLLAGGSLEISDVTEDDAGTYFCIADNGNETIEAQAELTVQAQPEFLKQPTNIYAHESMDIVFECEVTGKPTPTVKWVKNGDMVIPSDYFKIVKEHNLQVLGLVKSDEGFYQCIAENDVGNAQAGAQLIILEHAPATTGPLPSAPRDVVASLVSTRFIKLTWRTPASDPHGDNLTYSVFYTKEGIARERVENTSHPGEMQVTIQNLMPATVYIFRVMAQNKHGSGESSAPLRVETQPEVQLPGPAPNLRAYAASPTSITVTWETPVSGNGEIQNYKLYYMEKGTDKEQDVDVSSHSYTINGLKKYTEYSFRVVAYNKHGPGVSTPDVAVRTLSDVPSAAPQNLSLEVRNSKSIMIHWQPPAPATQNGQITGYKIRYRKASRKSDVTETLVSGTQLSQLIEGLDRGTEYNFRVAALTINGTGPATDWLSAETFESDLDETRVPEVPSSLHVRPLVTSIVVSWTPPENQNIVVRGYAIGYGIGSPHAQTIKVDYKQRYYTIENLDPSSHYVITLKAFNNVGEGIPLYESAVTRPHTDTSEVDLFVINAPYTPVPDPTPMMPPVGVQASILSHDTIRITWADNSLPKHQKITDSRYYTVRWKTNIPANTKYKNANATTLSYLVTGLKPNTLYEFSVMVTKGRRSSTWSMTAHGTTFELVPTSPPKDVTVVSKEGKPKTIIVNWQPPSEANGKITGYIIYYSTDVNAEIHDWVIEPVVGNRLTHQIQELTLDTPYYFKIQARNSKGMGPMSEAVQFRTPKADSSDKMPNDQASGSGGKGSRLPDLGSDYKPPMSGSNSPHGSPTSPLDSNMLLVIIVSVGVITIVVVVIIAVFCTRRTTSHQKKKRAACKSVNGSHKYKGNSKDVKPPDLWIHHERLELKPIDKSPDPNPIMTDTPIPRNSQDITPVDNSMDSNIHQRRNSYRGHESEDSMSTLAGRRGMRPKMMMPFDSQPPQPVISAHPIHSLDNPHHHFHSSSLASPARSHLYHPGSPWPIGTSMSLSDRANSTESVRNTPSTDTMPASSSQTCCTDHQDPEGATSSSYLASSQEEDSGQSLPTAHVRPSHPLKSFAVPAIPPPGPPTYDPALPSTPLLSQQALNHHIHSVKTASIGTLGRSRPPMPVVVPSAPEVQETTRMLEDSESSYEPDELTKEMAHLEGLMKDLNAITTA
UniProt P56556, whole entry, looked up: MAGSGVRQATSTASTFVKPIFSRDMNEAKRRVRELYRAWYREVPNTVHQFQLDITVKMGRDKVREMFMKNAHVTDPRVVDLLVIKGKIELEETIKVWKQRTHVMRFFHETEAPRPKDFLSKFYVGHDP
UniProt P30414: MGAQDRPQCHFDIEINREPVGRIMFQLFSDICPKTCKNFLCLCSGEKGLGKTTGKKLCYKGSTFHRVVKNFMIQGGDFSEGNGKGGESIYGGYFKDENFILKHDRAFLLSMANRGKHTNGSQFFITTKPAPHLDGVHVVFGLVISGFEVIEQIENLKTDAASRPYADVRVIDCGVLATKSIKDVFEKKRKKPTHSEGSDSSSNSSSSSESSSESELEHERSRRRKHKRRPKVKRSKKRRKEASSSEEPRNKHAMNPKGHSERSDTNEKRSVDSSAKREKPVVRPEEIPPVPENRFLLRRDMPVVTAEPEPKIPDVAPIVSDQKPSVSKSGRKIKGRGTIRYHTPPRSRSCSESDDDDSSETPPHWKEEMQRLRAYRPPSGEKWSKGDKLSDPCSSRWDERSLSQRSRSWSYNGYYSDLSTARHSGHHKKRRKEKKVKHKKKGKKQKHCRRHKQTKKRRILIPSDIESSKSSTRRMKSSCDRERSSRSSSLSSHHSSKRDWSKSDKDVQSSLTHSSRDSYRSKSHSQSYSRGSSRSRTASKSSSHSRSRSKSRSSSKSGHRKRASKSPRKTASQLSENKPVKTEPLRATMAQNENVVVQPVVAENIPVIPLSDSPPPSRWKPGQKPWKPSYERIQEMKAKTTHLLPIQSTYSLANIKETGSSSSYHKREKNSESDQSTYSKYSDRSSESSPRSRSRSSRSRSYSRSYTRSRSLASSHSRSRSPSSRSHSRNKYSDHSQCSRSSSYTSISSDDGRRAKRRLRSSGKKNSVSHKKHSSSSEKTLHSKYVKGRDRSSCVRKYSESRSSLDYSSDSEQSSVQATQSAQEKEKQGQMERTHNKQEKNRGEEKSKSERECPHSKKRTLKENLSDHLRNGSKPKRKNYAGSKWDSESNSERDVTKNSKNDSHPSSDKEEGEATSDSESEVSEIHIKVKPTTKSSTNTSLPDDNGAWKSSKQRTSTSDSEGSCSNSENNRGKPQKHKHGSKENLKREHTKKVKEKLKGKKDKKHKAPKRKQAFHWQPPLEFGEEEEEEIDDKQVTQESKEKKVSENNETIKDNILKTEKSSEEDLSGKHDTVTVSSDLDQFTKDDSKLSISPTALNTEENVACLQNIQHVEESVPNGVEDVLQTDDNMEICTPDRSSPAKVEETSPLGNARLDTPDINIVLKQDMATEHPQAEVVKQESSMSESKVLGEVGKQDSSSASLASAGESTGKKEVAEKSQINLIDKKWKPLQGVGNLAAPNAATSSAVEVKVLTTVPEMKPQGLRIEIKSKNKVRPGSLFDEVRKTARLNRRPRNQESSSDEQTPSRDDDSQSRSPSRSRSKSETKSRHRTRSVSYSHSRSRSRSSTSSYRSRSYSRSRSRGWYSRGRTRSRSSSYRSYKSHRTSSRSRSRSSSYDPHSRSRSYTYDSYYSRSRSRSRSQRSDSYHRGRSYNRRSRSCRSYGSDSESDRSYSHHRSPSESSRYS
UniProt Q9BZQ8: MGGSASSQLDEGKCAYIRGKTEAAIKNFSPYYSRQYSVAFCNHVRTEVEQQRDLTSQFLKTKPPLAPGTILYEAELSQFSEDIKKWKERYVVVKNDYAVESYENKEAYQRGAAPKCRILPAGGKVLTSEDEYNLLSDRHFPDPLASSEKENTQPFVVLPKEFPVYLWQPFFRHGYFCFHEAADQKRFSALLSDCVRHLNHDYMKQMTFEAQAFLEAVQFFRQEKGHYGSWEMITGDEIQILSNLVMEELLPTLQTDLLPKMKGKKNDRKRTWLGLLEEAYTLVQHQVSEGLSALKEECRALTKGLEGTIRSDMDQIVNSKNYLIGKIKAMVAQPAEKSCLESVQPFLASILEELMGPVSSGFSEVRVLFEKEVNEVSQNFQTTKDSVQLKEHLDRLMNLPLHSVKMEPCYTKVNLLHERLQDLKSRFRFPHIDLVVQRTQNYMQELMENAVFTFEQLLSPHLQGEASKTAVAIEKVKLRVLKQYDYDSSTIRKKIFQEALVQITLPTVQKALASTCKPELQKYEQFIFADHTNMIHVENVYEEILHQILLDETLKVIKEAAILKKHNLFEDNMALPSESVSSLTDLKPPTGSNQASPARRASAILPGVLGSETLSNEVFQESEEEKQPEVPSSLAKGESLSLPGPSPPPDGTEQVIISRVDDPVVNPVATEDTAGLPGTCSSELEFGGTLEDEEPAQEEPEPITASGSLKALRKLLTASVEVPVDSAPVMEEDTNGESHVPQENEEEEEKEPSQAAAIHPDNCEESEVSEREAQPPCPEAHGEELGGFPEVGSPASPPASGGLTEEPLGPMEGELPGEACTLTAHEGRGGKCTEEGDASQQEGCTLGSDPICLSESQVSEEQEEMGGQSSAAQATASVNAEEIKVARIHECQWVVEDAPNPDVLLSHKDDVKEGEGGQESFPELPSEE
UniProt Q8NBF2: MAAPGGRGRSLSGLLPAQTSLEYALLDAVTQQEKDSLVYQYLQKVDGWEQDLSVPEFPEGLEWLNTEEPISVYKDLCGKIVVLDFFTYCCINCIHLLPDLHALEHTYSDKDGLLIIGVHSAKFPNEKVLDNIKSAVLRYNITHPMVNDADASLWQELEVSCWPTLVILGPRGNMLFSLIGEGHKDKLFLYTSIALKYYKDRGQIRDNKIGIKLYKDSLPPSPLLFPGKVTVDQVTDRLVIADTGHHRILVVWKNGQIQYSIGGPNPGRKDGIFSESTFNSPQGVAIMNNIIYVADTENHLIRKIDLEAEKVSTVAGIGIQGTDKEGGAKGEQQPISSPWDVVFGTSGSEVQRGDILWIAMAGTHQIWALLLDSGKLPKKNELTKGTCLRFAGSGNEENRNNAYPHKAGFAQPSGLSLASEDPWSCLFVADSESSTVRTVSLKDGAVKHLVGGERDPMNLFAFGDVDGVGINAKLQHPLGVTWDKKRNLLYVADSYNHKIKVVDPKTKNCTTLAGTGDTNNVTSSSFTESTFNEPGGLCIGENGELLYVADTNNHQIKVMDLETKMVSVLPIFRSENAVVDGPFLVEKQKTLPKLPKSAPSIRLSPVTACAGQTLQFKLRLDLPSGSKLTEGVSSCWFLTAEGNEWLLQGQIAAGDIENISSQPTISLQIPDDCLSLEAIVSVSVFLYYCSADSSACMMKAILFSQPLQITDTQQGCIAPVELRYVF
UniProt O95299, whole entry, looked up: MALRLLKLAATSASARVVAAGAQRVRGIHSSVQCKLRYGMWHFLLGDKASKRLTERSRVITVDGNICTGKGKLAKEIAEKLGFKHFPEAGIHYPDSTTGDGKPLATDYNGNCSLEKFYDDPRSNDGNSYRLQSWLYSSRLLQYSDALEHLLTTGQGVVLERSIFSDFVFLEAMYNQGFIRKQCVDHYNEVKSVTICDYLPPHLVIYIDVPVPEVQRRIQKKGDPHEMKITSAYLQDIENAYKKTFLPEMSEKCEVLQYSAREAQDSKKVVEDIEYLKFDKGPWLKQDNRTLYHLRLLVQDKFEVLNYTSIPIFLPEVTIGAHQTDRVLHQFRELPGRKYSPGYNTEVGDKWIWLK

Experiments:
Assay in all cases: log2 fold change, soluble protein after heating vs DMSO (PISA); higher = thermal stabilisation; K562 lysate, 10 uM; active = over 0.2 and 3.5 SD of the protein, either way, in both replicates (recomputed)
alvocidib = compound: CN1CC[C@H](c2c(O)cc(O)c3c(=O)cc(-c4ccccc4Cl)oc23)[C@H](O)C1 [alvocidib]
Outline: (§1)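 Pellets of K562 cells were dounce-homogenised in PBS pH 7.4 with 1 mM MgCl2, and the crude extract was held at 1 mg/mL protein for a 30 min treatment with 10 μM compound. Aliquots were heated for 3 min over 48°C-58°C and pooled before NP-40 was added to 0.5% at 4°C. The supernatant from 21,000xg for 90 min was quantified by TMTpro 16plex LC-MS/MS with channel sums equalised. Values are reported from duplicates as log-two fold change in thermal stability relative to solvent controls.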

Tubastatin A = compound: CN1CCc2c(c3ccccc3n2Cc2ccc(C(=O)NO)cc2)C1 [Tubastatin A]
Outline: as §1

[1] = compound: CNC(=O)C1=CC=CC=C1NC2=NC(=NC=C2Cl)NC3=C(C=C(C=C3)N4CCOCC4)OC
Outline: as §1

defactinib = compound: CNC(=O)c1ccc(Nc2ncc(C(F)(F)F)c(NCc3nccnc3N(C)S(C)(=O)=O)n2)cc1 [defactinib]
Outline: as §1

[2] = compound: CNc1nc(-c2ccc3c(N)n[nH]c3c2)cc(N2C[C@@H](C(=O)NC3CCCCC3)CC[C@H]2C)n1
Outline: as §1

encorafenib = compound: COC(=O)N[C@@H](C)CNc1nccc(-c2cn(C(C)C)nc2-c2cc(Cl)cc(NS(C)(=O)=O)c2F)n1 [encorafenib]
Outline: as §1

[3] = compound: COC(=O)[C@H](CCSC)NC(=O)C1=C(C=C(C=C1)NC[C@H](CS)N)C2=CC=CC=C2
Outline: as §1

alisertib = compound: COc1cc(Nc2ncc3c(n2)-c2ccc(Cl)cc2C(c2c(F)cccc2OC)=NC3)ccc1C(=O)O [alisertib]
Outline: as §1

[4] = compound: COc1cc2nc(-c3cc(F)ccc3O)nc(N[C@@H]3CNC[C@H]3C(C)(C)O)c2cc1OC
Outline: as §1

gefitinib = compound: COc1cc2ncnc(Nc3ccc(F)c(Cl)c3)c2cc1OCCCN1CCOCC1 [gefitinib]
Outline: as §1

Row | Target | log2 fold change (alvocidib) | log2 fold change (Tubastatin A) | log2 fold change [1] | log2 fold change (defactinib) | log2 fold change [2] | log2 fold change (encorafenib) | log2 fold change [3] | log2 fold change (alisertib) | log2 fold change [4] | log2 fold change (gefitinib)
1 | NDUFS7 (UniProt O75251) | inactive: 0.01 | inactive: -0.042 | inactive: -0.05 | inactive: -0.006 | inactive: -0.058 | inactive: 0.007 | inactive: 0.006 | inactive: 0.074 | inactive: -0.022 | inactive: -0.01
2 | NDUFS5 (UniProt O43920) | inactive: 0.024 | inactive: 0.029 | inactive: 0.006 | inactive: 0.017 | inactive: 0.053 | inactive: 0.004 | inactive: 0.048 | inactive: 0.003 | inactive: 0.013 | inactive: -0.042
3 | NGLY1 (UniProt Q96IV0) | inactive: -0.041 | inactive: -0.089 | inactive: -0.013 | inactive: 0.022 | inactive: 0 | inactive: -0.009 | inactive: 0.111 | inactive: 0.002 | inactive: 0.001 | inactive: -0.044
4 | NDUFB5 (UniProt O43674) | inactive: 0.091 | inactive: -0.026 | inactive: -0.038 | inactive: 0.016 | inactive: 0.01 | inactive: 0.014 | inactive: -0.074 | inactive: 0.002 | inactive: -0.027 | inactive: 0.005
5 | NEK7 (UniProt Q8TDX7) | inactive: -0.055 | inactive: -0.113 | active: 0.552 | inactive: 0.007 | inactive: -0.013 | inactive: 0 | inactive: 0.003 | inactive: 0.038 | inactive: 0.057 | inactive: -0.049
6 | NDUFAB1 (UniProt O14561) | inactive: 0.044 | inactive: 0.064 | inactive: 0.035 | inactive: 0.026 | inactive: 0.039 | inactive: -0.009 | inactive: -0.117 | inactive: -0.052 | inactive: 0.024 | inactive: -0.095
7 | NDUFV1 (UniProt P49821) | inactive: 0.022 | inactive: 0.029 | inactive: -0.017 | inactive: -0.019 | inactive: 0.016 | inactive: -0.026 | inactive: 0.025 | inactive: 0.016 | inactive: -0.021 | inactive: -0.024
8 | NDUFA12 (UniProt Q9UI09) | inactive: -0.043 | inactive: 0.033 | inactive: 0.022 | inactive: 0.01 | inactive: -0.012 | inactive: -0.02 | inactive: 0.067 | inactive: -0.069 | inactive: -0.079 | inactive: 0.056
9 | NDUFAF7 (UniProt Q7L592) | inactive: 0.025 | inactive: -0.094 | inactive: 0.028 | inactive: 0.048 | inactive: 0.011 | inactive: 0.025 | inactive: -0.062 | inactive: -0.014 | inactive: 0.012 | inactive: 0.02
10 | NECTIN2 (UniProt Q92692) | inactive: 0.024 | inactive: 0.048 | inactive: -0.006 | inactive: 0.029 | inactive: -0.027 | inactive: -0.032 | inactive: -0.06 | inactive: -0.029 | inactive: 0.033 | inactive: 0.006
11 | NIPSNAP1 (UniProt Q9BPW8) | inactive: -0.005 | inactive: -0.028 | inactive: 0.075 | inactive: -0.029 | inactive: 0.035 | inactive: -0.039 | inactive: 0.042 | inactive: -0.022 | inactive: -0.094 | inactive: -0.051
12 | NDUFB10 (UniProt O96000) | inactive: 0.014 | inactive: 0.057 | inactive: -0.016 | inactive: 0.021 | inactive: 0.026 | inactive: -0.01 | inactive: 0.008 | inactive: 0.034 | inactive: -0.014 | inactive: -0.033
13 | NFATC3 (UniProt Q12968) | inactive: -0.023 | inactive: -0.093 | inactive: 0.013 | inactive: 0.022 | inactive: 0.033 | inactive: 0.067 | inactive: 0.035 | inactive: -0.004 | inactive: -0.007 | inactive: 0
14 | NLRP2 (UniProt Q9NX02) | inactive: 0.034 | inactive: -0.227 | inactive: 0 | inactive: 0.024 | inactive: -0.044 | inactive: 0.034 | active: -0.239 | inactive: -0.025 | inactive: 0 | inactive: -0.012
15 | NDUFAF1 (UniProt Q9Y375) | inactive: 0.004 | inactive: 0.051 | inactive: -0.02 | inactive: 0.021 | inactive: 0.037 | inactive: -0.022 | inactive: -0.008 | inactive: -0.006 | inactive: 0.029 | inactive: -0.101
16 | NFX1 (UniProt Q12986) | inactive: 0.011 | inactive: 0.05 | inactive: -0.028 | inactive: -0.046 | inactive: -0.004 | inactive: -0.13 | inactive: 0.003 | inactive: -0.045 | inactive: -0.001 | inactive: -0.093

An excerpt of these results, tab-delimited.
Row	Target	log2 fold change (alvocidib)	log2 fold change (Tubastatin A)	log2 fold change [1]	log2 fold change (defactinib)	log2 fold change [2]	log2 fold change (encorafenib)	log2 fold change [3]	log2 fold change (alisertib)	log2 fold change [4]	log2 fold change (gefitinib)
1	NDUFS7 (UniProt O75251)	inactive: 0.01	inactive: -0.042	inactive: -0.05	inactive: -0.006	inactive: -0.058	inactive: 0.007	inactive: 0.006	inactive: 0.074	inactive: -0.022	inactive: -0.01
4	NDUFB5 (UniProt O43674)	inactive: 0.091	inactive: -0.026	inactive: -0.038	inactive: 0.016	inactive: 0.01	inactive: 0.014	inactive: -0.074	inactive: 0.002	inactive: -0.027	inactive: 0.005
6	NDUFAB1 (UniProt O14561)	inactive: 0.044	inactive: 0.064	inactive: 0.035	inactive: 0.026	inactive: 0.039	inactive: -0.009	inactive: -0.117	inactive: -0.052	inactive: 0.024	inactive: -0.095
7	NDUFV1 (UniProt P49821)	inactive: 0.022	inactive: 0.029	inactive: -0.017	inactive: -0.019	inactive: 0.016	inactive: -0.026	inactive: 0.025	inactive: 0.016	inactive: -0.021	inactive: -0.024
8	NDUFA12 (UniProt Q9UI09)	inactive: -0.043	inactive: 0.033	inactive: 0.022	inactive: 0.01	inactive: -0.012	inactive: -0.02	inactive: 0.067	inactive: -0.069	inactive: -0.079	inactive: 0.056
11	NIPSNAP1 (UniProt Q9BPW8)	inactive: -0.005	inactive: -0.028	inactive: 0.075	inactive: -0.029	inactive: 0.035	inactive: -0.039	inactive: 0.042	inactive: -0.022	inactive: -0.094	inactive: -0.051
13	NFATC3 (UniProt Q12968)	inactive: -0.023	inactive: -0.093	inactive: 0.013	inactive: 0.022	inactive: 0.033	inactive: 0.067	inactive: 0.035	inactive: -0.004	inactive: -0.007	inactive: 0
15	NDUFAF1 (UniProt Q9Y375)	inactive: 0.004	inactive: 0.051	inactive: -0.02	inactive: 0.021	inactive: 0.037	inactive: -0.022	inactive: -0.008	inactive: -0.006	inactive: 0.029	inactive: -0.101
16	NFX1 (UniProt Q12986)	inactive: 0.011	inactive: 0.05	inactive: -0.028	inactive: -0.046	inactive: -0.004	inactive: -0.13	inactive: 0.003	inactive: -0.045	inactive: -0.001	inactive: -0.093

More records follow:

Row | Target | log2 fold change (alvocidib) | log2 fold change (Tubastatin A) | log2 fold change [1] | log2 fold change (defactinib) | log2 fold change [2] | log2 fold change (encorafenib) | log2 fold change [3] | log2 fold change (alisertib) | log2 fold change [4] | log2 fold change (gefitinib)
17 | NDEL1 isoform 2 (UniProt Q9GZM8) | inactive: -0.011 | inactive: 0.083 | inactive: 0.097 | inactive: 0.046 | inactive: 0.012 | inactive: 0.05 | inactive: -0.082 | inactive: -0.007 | inactive: 0 | inactive: -0.017
18 | NEDD8 (UniProt Q15843) | inactive: 0.169 | inactive: 0.132 | inactive: 0.083 | inactive: 0.019 | inactive: 0.037 | inactive: 0.015 | inactive: -0.062 | inactive: 0.021 | inactive: -0.03 | inactive: -0.148
19 | NEO1 (UniProt Q92859) | inactive: -0.192 |  |  |  |  |  |  |  |  | 
20 | NDUFA6 (UniProt P56556) | inactive: 0.054 | inactive: 0.15 | inactive: -0.072 | inactive: -0.046 | inactive: 0.001 | inactive: -0.011 | inactive: 0.063 | inactive: 0.019 | inactive: -0.008 | inactive: -0.081
21 | NKTR (UniProt P30414) | inactive: -0.256 | inactive: -0.028 | inactive: 0.036 | inactive: -0.092 | inactive: 0.24 | inactive: 0.068 | inactive: -0.088 | inactive: -0.029 | inactive: 0.129 | inactive: -0.006
22 | NDUFS8 (UniProt O00217) | inactive: 0.038 | inactive: 0.014 | inactive: -0.033 | inactive: 0.006 | inactive: -0.03 | inactive: 0.02 | inactive: 0.061 | inactive: 0.033 | inactive: -0.083 | inactive: -0.027
23 | NEK3 (UniProt P51956) | inactive: -0.059 | inactive: -0.054 | inactive: 0.068 | inactive: 0.111 | inactive: 0.044 | inactive: 0.036 | inactive: -0.024 | inactive: -0.105 | inactive: 0.015 | inactive: 0.056
24 | NIBAN1 (UniProt Q9BZQ8) | inactive: 0.001 | inactive: -0.061 | inactive: 0.017 | inactive: 0.02 | inactive: -0.036 | inactive: 0.007 | inactive: 0.034 | inactive: -0.049 | inactive: -0.012 | inactive: 0.022
25 | NDUFA13 (UniProt Q9P0J0) | inactive: 0.019 | inactive: 0.002 | inactive: -0.003 | inactive: -0.01 | inactive: 0.062 | inactive: -0.018 | inactive: 0.015 | inactive: 0.006 | inactive: -0.002 | inactive: -0.032
26 | NDC80 (UniProt O14777) | inactive: 0.003 | inactive: -0.094 | inactive: 0.022 | inactive: 0.023 | inactive: -0.043 | inactive: -0.009 | inactive: 0.092 | inactive: 0.025 | inactive: 0.007 | inactive: -0.023
27 | NDUFA7 (UniProt M0R0N0) | inactive: -0.498 |  |  |  |  |  |  |  |  | 
28 | NECAP2 (UniProt Q9NVZ3) | inactive: 0.002 | inactive: 0.039 | inactive: -0.012 | inactive: -0.023 | inactive: 0.012 | inactive: 0.031 | inactive: -0.02 | inactive: -0.012 | inactive: 0.006 | inactive: -0.056
29 | NHLRC2 (UniProt Q8NBF2) | inactive: -0.019 | inactive: -0.063 | inactive: -0.021 | inactive: -0.006 | inactive: 0 | inactive: 0.013 | inactive: 0.057 | inactive: 0.014 | inactive: 0.004 | inactive: 0.001
30 | NDUFA10 (UniProt O95299) | inactive: 0.048 | inactive: -0.028 | inactive: -0.044 | inactive: 0.029 | inactive: -0.043 | inactive: -0.011 | inactive: 0.112 | inactive: 0.105 | inactive: 0.124 | inactive: -0.041
31 | NEBL (UniProt O76041) | inactive: 0.149 | inactive: 0.022 | inactive: -0.048 | inactive: 0.024 | inactive: 0.043 | inactive: -0.083 | inactive: 0.015 | inactive: -0.134 | inactive: -0.005 | inactive: 0
